Here are results for one substance from paper PMC9583501.

Chains of the proteins cited; added tags and fusions are not shown.
UniProt O15379: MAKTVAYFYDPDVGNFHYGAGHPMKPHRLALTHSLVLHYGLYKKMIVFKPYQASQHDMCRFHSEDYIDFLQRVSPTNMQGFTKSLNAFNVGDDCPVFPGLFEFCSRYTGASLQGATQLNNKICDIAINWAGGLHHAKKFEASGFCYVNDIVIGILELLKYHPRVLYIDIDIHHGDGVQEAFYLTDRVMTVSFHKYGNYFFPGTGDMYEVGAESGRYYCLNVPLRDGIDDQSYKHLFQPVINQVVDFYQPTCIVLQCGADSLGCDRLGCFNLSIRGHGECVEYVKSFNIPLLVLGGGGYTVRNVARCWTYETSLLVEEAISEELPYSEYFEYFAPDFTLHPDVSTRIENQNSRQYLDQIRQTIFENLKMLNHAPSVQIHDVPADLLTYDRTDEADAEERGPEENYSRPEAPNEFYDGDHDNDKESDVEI

No constants are given. Whether binding was seen depends on the method and setting. In cells and extracts the contact can be indirect. Some results given as binding are weak or reduced against the parent protein; the word gives no strength.

The test has as its target T1, programmed cell death 5 (human (endogenous in A498)) (UniProt O14737).
T1 sequence: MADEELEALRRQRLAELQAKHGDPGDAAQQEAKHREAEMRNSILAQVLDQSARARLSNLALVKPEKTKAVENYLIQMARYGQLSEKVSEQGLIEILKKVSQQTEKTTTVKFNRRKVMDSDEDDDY
Kind of test: co-IP; endogenous proteins; A498 cells lysed in NP-40 buffer (25 mM Tris-HCl pH 7.4, 150 mM NaCl, 1 mM EDTA, 5% glycerol, 1% NP-40); extract incubated overnight at 4 °C with protein G beads coupled to rabbit IgG, PDCD5 antibody or HDAC3 antibody; Western blot. In general terms: A western blot detects proteins with antibodies after separation by electrophoresis.

For “histone deacetylase 3 (from UniProt O15379 1-428)”, the binding result was “binds”.
